Reference: PubChem BioAssay AID1224830 (NIAID, 2016)

Aim: 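Genes whose knock-down alters the TNF-alpha reporter response to LPS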 (primary screen)
System: human THP-1 monocytic leukaemia cells, TNF dual-luciferase reporter clone, PMA-differentiated to macrophage-like cells
Reagents: siRNA pool against human genes, 50 nM
Time to read-out: LPS for 4 h, given about 3 days after siRNA transfection
Conditions: bacterial LPS (TLR4 ligand), 10 ng/ml
Detection: 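Ratio of firefly to renilla light, scaled to the plate median and expressed as a robust z-score per replicate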
Direction: TNF reporter robust z-score: higher = stronger TNF reporter response to LPS
Hit rule: 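a well is active when its z-score exceeds 2.8 or falls below -1.5; control wells carry no call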
Shown is a random part of about 18,000 reagents. Of all reagents, about 2,900 (16%) are marked active. 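Calls are made per well; low scores hint the gene aids the LPS response, high scores that it dampens it.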 Repeated entries: four replicate wells of each siRNA pool.

Target gene | TNF reporter robust z-score | call
EDN2 | -0.39 | inactive
EDN2 | -0.52 | inactive
EDN2 | -0.84 | inactive
EDN2 | -0.69 | inactive
SPP1 | 1.26 | inactive
SPP1 | -0.51 | inactive
SPP1 | -0.63 | inactive
SPP1 | 0.95 | inactive
PSTPIP2 | 1.56 | inactive
PSTPIP2 | 1.04 | inactive
PSTPIP2 | 1.73 | inactive
PSTPIP2 | 2.27 | inactive
BPGM | 2 | inactive
BPGM | 2.18 | inactive
BPGM | 0.1 | inactive
BPGM | 0.53 | inactive
MRPS12 | -1.14 | inactive
MRPS12 | -1.06 | inactive
MRPS12 | -1.16 | inactive
MRPS12 | -0.42 | inactive
CAPRIN1 | -1.61 | active
CAPRIN1 | -1.59 | active
CAPRIN1 | -0.99 | inactive
CAPRIN1 | -1.23 | inactive
CABP1 | 0.6 | inactive
CABP1 | -0.37 | inactive
CABP1 | 0 | inactive
CABP1 | 2.04 | inactive
KCNJ14 | 0.26 | inactive
KCNJ14 | 1.86 | inactive
KCNJ14 | -0.09 | inactive
KCNJ14 | 1.04 | inactive
STK33 | 0.03 | inactive
STK33 | 0.57 | inactive
STK33 | -0.26 | inactive
STK33 | 0.49 | inactive
GJA1 | -1.09 | inactive
GJA1 | 1.22 | inactive
GJA1 | -0.32 | inactive
GJA1 | 1.66 | inactive
CFI | 1.35 | inactive
CFI | -0.97 | inactive
CFI | 0.12 | inactive
CFI | 0.71 | inactive
UGT1A5 | – | inactive
UGT1A5 | 1.89 | inactive
UGT1A5 | 1.4 | inactive
UGT1A5 | 1.77 | inactive
UGT1A5 | 2.73 | inactive

Active calls (from the list above):
Target gene | TNF reporter robust z-score | call
CAPRIN1 | -1.61 | active
CAPRIN1 | -1.59 | active
